EP3389689B1, “ACTIVE INGREDIENTS FOR TOPICAL APPLICATION” (priority 2015, dated 2021)
Not every detail of the peptide structures is certain; ends, links or a residue may be inferred. Square brackets hold non-standard residues; d marks the D form. Peptide text beside a SMILES is read from it. * marks the point of attachment. Dab = NCC[C@H](N)C(=O)O; NHBn = c1ccc(CN*)cc1; βAla = NCCC(=O)O

Test system: genes involved in collagen fiber maturation
Assay: Gene-expression analysis, summary statement in words
Assay type: cell-based, human
Settings: result in words; fibroblasts, 0.01%, 24hrs
Experimental: Normal human dermal fibroblasts at passage 7 from a donor were cultured in DMEM with L-glutamine 2mM, Penicillin 50U/ml-Streptomycin 50ug/ml and 10% FCS in a 5% CO2 atmosphere at 37°C. After equilibration of cell in 1% FCS for 24hrs the respective peptides H-(beta-Ala)-Pro-Dab-NH-benzyl [CAS 823202-99-9], respectively N-palmitoyl-Gly-His-Lys [147732-56-7] / N-palmitoyl-Gly-Gln-Pro-Arg [221227-05-0] (2:1) diluted in growth medium to a concentration of 0.01% were added and the cells were incubated for an additional 24hrs. At the end of incubation cells were washed in PBS and immediately frozen at -80°C. Total RNA was extracted using NucleoSpin RNA Plus kit (Macherey-Nagel) according to supplier's instructions. cDNA was synthesized by reverse transcription of total RNA using Transcriptor Reverse Transcriptase (Roche). PCR was performed on a LightCycler device (Roche Molecular Systems Inc.) according to manufacturer's instructions. Raw data were analyzed using Microsoft Excel.

SMILES: NCCC(=O)N1CCC[C@H]1C(=O)N[C@@H](CCN)C(=O)NCc1ccccc1 [H-(β-Ala)-Pro-Dab-NH-benzyl, H-(beta-Ala)-Pro-Dab-NH-benzyl] (H-[βAla]-Pro-[Dab]-NHBn)
- up-regulation of genes involved in collagen fiber maturation: significantly up-regulates
